# The supplement of paper PMC8047044
# Several values for one entry are separate records, joined by “and”; a condition that tells them apart may be missing. Equal values may be shown once. Where a name gives a salt, the structure may show the parent alone. The list shows a part of the results. Single values are uncertain, as repeats are few or missing.
# Tested on: Neuro-2a
# Assay: neurite formation score, plate-normalized to DMSO control mean 5.04 (score (0-8 scale)); higher = more or longer neurites
# Details: 10 µM
row,Structure (SMILES),neurite formation score
1,CNC(=O)c1ccc(C)c(-n2c(C)cc(OCc3ccc(F)cc3F)c(Br)c2=O)c1,3.52
2,NC(=O)c1cnc(N[C@@H]2CCCC[C@@H]2N)nc1Nc1cccc(-n2nccn2)c1,0.41
3,O=C(O)CCC(=O)Nc1ccc(Br)cn1 [Bikinin],4.52
4,COc1cc(C(=O)N2CCC(N3CCN(C)CC3)CC2)ccc1Nc1ncc2c(n1)N(C)c1ccccc1C(=O)N2C,4.74
5,Cc1ccc(NC(=O)c2ccc(CN3CCN(C)CC3)cc2)cc1Nc1nccc(-c2cccnc2)n1 [Imatinib Mesylate (STI571)],4.21
6,C=CC(=O)N1CCC(Oc2cc3c(Nc4ccc(Cl)c(Cl)c4F)ncnc3cc2OC)CC1 [Poziotinib],-0.576
7,Cc1ccc(C(=O)Nc2cccc(C(F)(F)F)c2)cc1Nc1nc(-c2cccnc2)nc2c1cnn2C,1.43
8,CNC(=O)CN1CCC(Oc2cc3c(Nc4cccc(Cl)c4F)ncnc3cc2OC)CC1 [AZD8931 (Sapitinib)],3.43
9,CO[C@H]1C[C@@H]2CC[C@@H](C)[C@@](O)(O2)C(=O)C(=O)N2CCCC[C@H]2C(=O)O[C@H]([C@H](C)C[C@@H]2CC[C@@H](OCCO)[C@H](OC)C2)CC(=O)[C@H](C)/C=C(\C)[C@@H](O)[C@@H](OC)C(=O)[C@H](C)C[C@H](C)/C=C/C=C/C=C/1C [Everolimus (RAD001)],4.19
10,CCCCCCCCCCCCCCCc1cccc(O)c1C(=O)O [Anacardic acid],1.08
11,CC(C)(C)c1cc(NC(=O)Nc2ccc(-c3cn4c(n3)sc3cc(OCCN5CCOCC5)ccc34)cc2)no1 [Quizartinib (AC220)],4.19
12,CN(C)C1CCN(C(=O)c2ccc(NC(=O)Nc3ccc(-c4nc(N5CCOCC5)nc(N5CCOCC5)n4)cc3)cc2)CC1,3.76
13,O=C(NCc1cccc(O)c1)Nc1nc(-c2ccncc2)cs1,4.41
14,O=S(=O)(c1cccc2c(O)nccc12)N1CCCNCC1 [Hydroxyfasudil hydrochloride],4.42
15,Cc1c(NC(=O)c2ccc(C(C)(C)C)cc2)cccc1-c1cn(C)c(=O)c(Nc2ccc(C(=O)N3CCOCC3)cc2)n1,5.88
16,CC(C)[C@H](CO)Nc1nc(Nc2cccc(Cl)c2)c2ncn(C(C)C)c2n1 [Purvalanol A],0.855
17,CNC(=O)c1cc(Oc2ccc(NC(=O)Nc3ccc(Cl)c(C(F)(F)F)c3)c(F)c2)ccn1 [Regorafenib],3.52
18,COc1ccc(-c2cnc3c(-c4cccc5ncccc45)cnn3c2)cc1,3.52
19,O=C(Nc1cccnc1)c1cc(-c2ccnc(F)c2)ccc1OCc1ccccc1,4.86
20,O=C(O)[C@]1(Cc2cccc(Nc3nccs3)n2)CC[C@@H](Oc2cccc(Cl)c2F)CC1,0.41

# Part of the list above in order of formula weight, rising.
row,Structure (SMILES),neurite formation score
3,O=C(O)CCC(=O)Nc1ccc(Br)cn1 [Bikinin],4.52
14,O=S(=O)(c1cccc2c(O)nccc12)N1CCCNCC1 [Hydroxyfasudil hydrochloride],4.42
13,O=C(NCc1cccc(O)c1)Nc1nc(-c2ccncc2)cs1,4.41
10,CCCCCCCCCCCCCCCc1cccc(O)c1C(=O)O [Anacardic acid],1.08
18,COc1ccc(-c2cnc3c(-c4cccc5ncccc45)cnn3c2)cc1,3.52
2,NC(=O)c1cnc(N[C@@H]2CCCC[C@@H]2N)nc1Nc1cccc(-n2nccn2)c1,0.41
20,O=C(O)[C@]1(Cc2cccc(Nc3nccs3)n2)CC[C@@H](Oc2cccc(Cl)c2F)CC1,0.41
6,C=CC(=O)N1CCC(Oc2cc3c(Nc4ccc(Cl)c(Cl)c4F)ncnc3cc2OC)CC1 [Poziotinib],-0.576
7,Cc1ccc(C(=O)Nc2cccc(C(F)(F)F)c2)cc1Nc1nc(-c2cccnc2)nc2c1cnn2C,1.43
15,Cc1c(NC(=O)c2ccc(C(C)(C)C)cc2)cccc1-c1cn(C)c(=O)c(Nc2ccc(C(=O)N3CCOCC3)cc2)n1,5.88
12,CN(C)C1CCN(C(=O)c2ccc(NC(=O)Nc3ccc(-c4nc(N5CCOCC5)nc(N5CCOCC5)n4)cc3)cc2)CC1,3.76

# Additional records.

row,Structure (SMILES),neurite formation score
1,COc1ccccc1-c1cc(Nc2cccc(CS(N)(=O)=O)c2)ncn1,5.52
2,Nc1cc(N)c(N)cc1N [FAK Inhibitor 14],4.19
3,COc1ccc(-c2ccc3c(N4CCOC[C@@H]4C)nc(N4CCOC[C@@H]4C)nc3n2)cc1CO,4.19
4,CO[C@H]1C[C@@H]2CC[C@@H](C)[C@@](O)(O2)C(=O)C(=O)N2CCCC[C@H]2C(=O)O[C@H]([C@H](C)C[C@@H]2CC[C@@H](OC(=O)C(C)(CO)CO)[C@H](OC)C2)CC(=O)[C@H](C)/C=C(\C)[C@@H](O)[C@@H](OC)C(=O)[C@H](C)C[C@H](C)/C=C/C=C/C=C/1C [Temsirolimus],3.85
5,Cc1ccc(S(=O)(=O)Nc2nc3ccccc3nc2Nc2ccc3nsnc3c2)cc1,2.09
6,"CN1CCN(c2ccc3nc(-c4c(N)c5c(F)cccc5[nH]c4=O)[nH]c3c2)CC1 [Dovitinib (TKI-258, CHIR-258)]",1.19
7,C[C@@H]1CCN(C(=O)CC#N)C[C@@H]1N(C)c1ncnc2[nH]ccc12,4.41 and 4.08
8,C=CC(=O)Nc1ccc2ncnc(Nc3ccc(OCc4cccc(F)c4)c(Cl)c3)c2c1,3.85
9,CCN1CCN(Cc2ccc(Nc3ncc(F)c(-c4cc(F)c5nc(C)n(C(C)C)c5c4)n3)nc2)CC1,2.88
10,Cc1ccc(S(=O)(=O)/C=C/C#N)cc1,-0.576
11,CC(C)Nc1cc(-c2c[nH]c(C(=O)N[C@H](CO)c3cccc(Cl)c3)c2)c(Cl)cn1,3.42
12,"CCCCCCCCCCCCCCCCCC(=O)OC[C@H](CO)OC(=O)CCCCCCCCCCCCCCCCC [1,2-Distearoyl-sn-glycerol]",5.86
13,CCOC(=O)c1cnc2ccc(-c3cncc(NS(=O)(=O)c4ccccc4)c3)cn12,0.189
14,CNc1nc(Nc2cnn(C3CCN(C4COC4)CC3F)c2Cl)ncc1C(F)(F)F (centres undefined),5.19
15,COc1cc2c(Oc3ccc(NC(=O)C4(C(=O)Nc5ccc(F)cc5)CC4)cc3F)ccnc2cc1OCCCN1CCOCC1,0.209
16,CCCCOc1c(C(=O)c2c(F)cc(C)cc2F)c[nH]c2nncc1-2,5.43
17,O=C1C(c2c(O)[nH]c3ccccc23)=Nc2ccccc21 [Indirubin],5.52
18,O=C1NC(=O)[C@@H](c2cn3c4c(cccc24)CCC3)[C@@H]1c1c[nH]c2ccccc12 [Tivantinib (ARQ 197)],0.853
19,CN1CCN(Cc2ccc(-c3cnc4[nH]cc(-c5ccc6[nH]ccc6c5)c4c3)cc2)CC1,3.52
